Reference: article PMC10844593
No constants are given. Whether binding was seen depends on the method and setting. Binding seen in cells or lysates may run through a third protein. Some results given as binding are weak or reduced against the parent protein; the word gives no strength.

Sequences of proteins named here, by UniProt entry; tags and fusion partners are left off. A change or cut given only in a name is not applied to a line headed by its entry.
UniProt Q64261: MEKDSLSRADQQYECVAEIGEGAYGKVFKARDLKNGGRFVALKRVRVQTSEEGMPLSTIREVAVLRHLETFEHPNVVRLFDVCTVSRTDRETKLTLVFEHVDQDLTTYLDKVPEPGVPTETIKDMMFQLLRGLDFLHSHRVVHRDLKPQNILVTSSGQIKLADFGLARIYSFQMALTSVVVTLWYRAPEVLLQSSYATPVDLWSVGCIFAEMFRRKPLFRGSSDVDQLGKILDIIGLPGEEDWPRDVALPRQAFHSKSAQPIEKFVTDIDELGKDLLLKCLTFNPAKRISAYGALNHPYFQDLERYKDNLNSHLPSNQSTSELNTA

B1: Carbohydrate-responsive element-binding protein, β isoform (CHREBPβ) (protein, UniProt Q99MZ3-6 1-687)
chain: MREYHKWRIYYKKRLRKSSREGDFLAPKQVEGGWPPPERWCEQLFSSVVPVLLGGSEEEPGGRQLLDLDCFLSDISDTLFTMTQPSPSSLQLPPEDAYVGNADMIQPDLTPLQPSLDDFMEISDFFTNYRPPQTPTSSNYIESPSFGPMADSLFSSGILAPEMPSPASSSSSSGMTPHSGNTRLQARNSCSGPLDPNPFLSSEFLLPEDPKTKIPPAPGPTPLLPFPTPVKVHGLEPCTPSPFPTMAPPPSLLPEESLLSARFPFTSAPPAPGVSTLPAPTTFVPTPQPGPGPVPFSVDHLPHGYLEPVFGPHFTVPQGMQPRCKPSSPSPGGQKASPPTLASATASPTATATARDNNPCLTQLLRAAKPEQALEPPTMPGTLLRPPESPQDTVSEIPRARAFFPPIPAPTPPRPPPGPATLAPPRSLVVPKAERLSPPASSGSERRLSGDLNSIQPSGALSVHLSPPQTVLSRGRVDNNKMENRRITHISAEQKRRFNIKLGFDTLHGLVSTLSAQPSLKVSKATTLQKTAEYILMLQQERAAMQEEAQQLRDEIEELNAAINLCQQQLPATGVPITHQRFDQMRDMFDDYVRTRTLHNWKFWVFSILIRPLFESFNGMVSTASLHSLRQTSLAWLEQYCSLPALRPTVLNSLRQLSTSTSILTDPSLVPEQATRAVTEGTLGRPL
B2: Phosphorylated CHREBPβ (p-CHREBPβ) (protein, UniProt Q99MZ3-6 1-687)
chain: B1 chain
modifications: phosphorylated (p-CHREBPβ); residues not stated
B3: Carbohydrate-responsive element-binding protein, α isoform (CHREBPα) (protein, UniProt Q99MZ3-1 1-864)
chain: MARALADLSVNLQVPRVVPSPDSDSDTDLEDPSPRRSAGGLHRSQVIHSGHFMVSSPHSDSLTRRRDQEGPVGLADFGPRSIDPTLTHLFECLSLAYSGKLVSPKWKNFKGLKLLCRDKIRLNNAIWRAWYIQYVQRRKSPVCGFVTPLQGSEADEHRKPEAVILEGNYWKRRIEVVMREYHKWRIYYKKRLRKSSREGDFLAPKQVEGGWPPPERWCEQLFSSVVPVLLGGSEEEPGGRQLLDLDCFLSDISDTLFTMTQPSPSSLQLPPEDAYVGNADMIQPDLTPLQPSLDDFMEISDFFTNYRPPQTPTSSNYIESPSFGPMADSLFSSGILAPEMPSPASSSSSSGMTPHSGNTRLQARNSCSGPLDPNPFLSSEFLLPEDPKTKIPPAPGPTPLLPFPTPVKVHGLEPCTPSPFPTMAPPPSLLPEESLLSARFPFTSAPPAPGVSTLPAPTTFVPTPQPGPGPVPFSVDHLPHGYLEPVFGPHFTVPQGMQPRCKPSSPSPGGQKASPPTLASATASPTATATARDNNPCLTQLLRAAKPEQALEPPTMPGTLLRPPESPQDTVSEIPRARAFFPPIPAPTPPRPPPGPATLAPPRSLVVPKAERLSPPASSGSERRLSGDLNSIQPSGALSVHLSPPQTVLSRGRVDNNKMENRRITHISAEQKRRFNIKLGFDTLHGLVSTLSAQPSLKVSKATTLQKTAEYILMLQQERAAMQEEAQQLRDEIEELNAAINLCQQQLPATGVPITHQRFDQMRDMFDDYVRTRTLHNWKFWVFSILIRPLFESFNGMVSTASLHSLRQTSLAWLEQYCSLPALRPTVLNSLRQLSTSTSILTDPSLVPEQATRAVTEGTLGRPL

Legend:
[1] = molecular target: Cyclin-dependent kinase 6 (CDK6), wild type (mouse (endogenous in eWAT and ADSC)) (UniProt Q64261); assay: co-IP; ADSCs of WT and K43M mice (Supplementary Fig. 10c–g); told as similar to the IP-Westerns of eWAT; legend and details not shown
[2] = molecular target: Cyclin-dependent kinase 6 (CDK6), wild type (mouse (endogenous in eWAT and ADSC)) (UniProt Q64261); assay: co-IP; IP-Western from eWAT extracts of WT, K43M and KR (K43M;Runx1-/-) mice; AMPKα, CDK6, CHREBP or p-AMPKα immunoprecipitated and blotted with the indicated antibodies; input 50 μg extract
[3] = molecular target: CDK6 K43M, catalytically inactive kinase (knock-in allele) (mouse (endogenous in eWAT and ADSC)) (UniProt Q64261); assay: co-IP; ADSCs of WT and K43M mice (Supplementary Fig. 10c–g); told as similar to the IP-Westerns of eWAT; legend and details not shown

| Binder | binding [1] | binding [2] | binding [3] |
| --- | --- | --- | --- |
| B1 | binds | binds |  |
| B2 | binds |  | binds |
| B3 |  | no binding |  |
